Results as given in PubChem BioAssay AID2685 (National Center for Advancing Translational Sciences (NCATS), 2010).
Some of the results follow. Shown are side measurements of this screen, not its main read-out; they come without a call. Most of these compounds were active or inconclusive in the main read-out, so they are no random draw. The note in brackets gives the kind of curve behind each potency; many fits are weak.

Assay: qHTS Assay for Lipid Storage Modulators in Drosophila S3 Cells;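 for cell number change: cells counted by Cell Tracker Red CMTPX staining in the red channel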
Details: BODIPY lipid droplet fluorescence, 18-24 h; for cell number change: measured here: cell count max response, cells fed with added oleic acid
Outline: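 Drosophila S3 cells got compounds at several concentrations plus oleic acid (400 uM solution). Laser-scanning cytometry with 488 nm excitation read lipid droplets at 500-530 nm and cells at 575-640 nm. Percent activity was relative to 20 uM Triacsin C.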

[1] = measured here: lipid fluorescence (Fed channel) AC50, cells fed with added oleic acid
[2] = measured here: cell number channel AC50, cells fed with added oleic acid

Row | SMILES | cell number change [%] | AC50 [1] | AC50 [2]
1 | CC(=O)c1cc2ccccc2oc1=O | 9.89 | 0.116 µM [rising, full curve, poor fit] | 
2 | CN(C)Cc1cnc2ccc(Cl)cn12 | 16.6 | 29.1 µM [rising, single point] | 
3 | COc1cc(C(=O)NC(=S)Nc2ccc(Cl)c(C(=O)O)c2)cc(OC)c1OC | 36.2 |  | 29.1 µM [rising, single point]
4 | COc1ccccc1C(=O)N/C(=C/c1ccc(Br)cc1)C(=O)N1CCCC1 | 16.6 |  | 
5 | O=C(COC(=O)c1cc([N+](=O)[O-])ccc1N1CCOCC1)Nc1c(Cl)cccc1Cl |  | 14.6 µM [rising, partial curve] | 6.51 µM [rising, single point]
6 | O=C(O)C1CC(=O)N(Cc2ccccc2)C1 (stereo not drawn) | -4.15 |  | 
7 | COc1cccc(/C=C2\SC(=O)N(CCC(=O)NCCCn3ccnc3)C2=O)c1 | -18.5 | 6.51 µM [falling, single point] | 
8 | Cc1cccc(OCC(=O)Nc2ccncc2)c1C | -20.1 | 0.651 µM [falling, partial curve, poor fit] | 2.06 µM [falling, single point]
9 | CC(=O)c1ccc(NC(=O)CCCC(=O)c2ccccc2)cc1 | 9.69 | 14.6 µM [rising, partial curve, poor fit] | 
10 | Cc1cc(C)c(S(=O)(=O)Nc2nccs2)c(C)c1 | 15.2 |  | 
11 | COCCNC(=O)CN(C(=O)CCC(=O)Nc1nccs1)c1ccccc1OC | 63.8 | 4.11 µM [rising, single point] | 23.1 µM [rising, partial curve]
12 | COC(=O)C(Cc1c[nH]c2ccccc12)NC(=O)c1cc(-c2ccc(OC)c(OC)c2)oc1C (stereo not drawn) | -23.2 | 29.1 µM [falling, single point] | 
13 | Cc1nn(C2CCS(=O)(=O)C2)c(Cl)c1/C=C/C(=O)OCC(N)=O (stereo not drawn) | -4.79 | 0.92 µM [falling, full curve] | 
14 | CCc1ccnc(NC(=O)NS(=O)(=O)c2ccc(C)cc2)c1 | 17.8 | 4.11 µM [falling, partial curve, poor fit] | 
15 | CCn1c(COc2ccccc2OC)nnc1SCC(=O)NC1CCCC1 | -5.41 | 0.13 µM [falling, full curve, poor fit] | 
16 | CC1CCC2(CC1)NC(=O)N(Cc1nnc(-c3cccs3)o1)C2=O (stereo not drawn) | 78.4 |  | 18.4 µM [rising, single point]
17 | CCCCC1=CC2=C(c3ccco3)C(=O)C(C)(OC(=O)c3ccc(OC)cc3)C(=O)C2=CN1c1ccc(OC)cc1 (stereo not drawn) | -55.5 | 18.4 µM [falling, single point] | 18.4 µM [falling, single point]
18 | COCCn1c(SCC(=O)Nc2ccc(NC(C)=O)cc2)nc2ccccc2c1=O | 184 | 29.1 µM [rising, partial curve] | 29.1 µM [rising, partial curve]
19 | COc1ccc(Cc2nc(C)cc(Cl)n2)cc1[N+](=O)[O-] | -11 |  | 
20 | CCc1nnc(NC(=O)c2ccc(N3C(=O)CCC3=O)cc2)s1 |  |  | 6.51 µM [falling, single point]

Row | SMILES | cell number change [%] | AC50 [1] | AC50 [2]
21 | CCCCC1CCC(C(=O)Nc2ccccc2)CC1 (stereo not drawn) | -13.1 | 0.291 µM [falling, full curve] | 
22 | CC(Cc1cccs1)NC(=S)Nc1ccccc1 (stereo not drawn) | -39.7 | 4.61 µM [rising, single point] | 32.6 µM [falling, single point]
23 | Cc1cccc(NS(=O)(=O)c2nnc(NC(=O)C3CCCCC3)s2)c1 | -15.6 |  | 
24 | COc1cccc(C2=NN(C(=O)c3ccc(C)o3)C(O)(C(F)(F)F)C2)c1 (stereo not drawn) | -13.9 | 20.6 µM [falling, single point] | 
25 | COc1ccc(-n2cnnc2SCC(=O)N(C)C2CCS(=O)(=O)C2)cc1 (stereo not drawn) | 18.1 | 16.4 µM [rising, single point] | 
26 | O=S(=O)(NC(=NC1CCCC1)C(F)(F)F)c1ccccc1 | -1.56 | 0.731 µM [rising, full curve] | 
27 | COc1cc(NS(=O)(=O)c2ccc(NC(C)=O)cc2)nc(OC)n1 | -63.1 | 4.11 µM [falling, full curve] | 4.11 µM [falling, full curve]
28 | Cc1nc2c(C)cccn2c(=O)c1NC(=O)c1ccc2c(c1)OCO2 | 7.71 | 6.51 µM [falling, single point] | 
29 | O=C(NC1CCCc2c1cnn2-c1ccccc1F)c1ccccn1 (stereo not drawn) |  | 0.259 µM [falling, full curve, poor fit] | 0.116 µM [falling, full curve, poor fit]
30 | COc1ccccc1NC(=S)NNC(=O)c1ccccc1Br |  | 2.06 µM [rising, partial curve] | 
31 | CCC(C(=O)NCc1ccco1)n1nc(C)c2c(C)n(-c3ccccc3)nc2c1=O (stereo not drawn) | 4.42 | 2.06 µM [rising, partial curve] | 
32 | Cc1cc(C)nc(N2N=C(CSc3ccc(Cl)cc3)CC2=O)n1 | 26.3 | 1.46 µM [rising, full curve, poor fit] | 1.64 µM [rising, full curve, poor fit]
33 | CC1CCN(C(=O)c2ccc(S(=O)(=O)N3CCOCC3)cc2)CC1 | -23 | 2.31 µM [falling, partial curve, poor fit] | 
34 | CCCc1cc(C(=O)Nc2cc(C)ccc2O)no1 | 17.5 | 0.164 µM [rising, single point] | 
35 | Cc1c(C(=O)N2CCc3ccccc3C2)oc2ccccc12 | -6.01 | 3.26 µM [falling, full curve, poor fit] | 
36 | Cc1ccc(NC(=O)Nc2cccnc2)cc1Cl | 3.64 | 0.00651 µM [rising, full curve, poor fit] | 
37 | O=C(CCCN1C(=O)/C(=C\c2cccc(Br)c2)SC1=S)Nc1cccnc1 | -24.1 | 29.1 µM [falling, single point] | 
38 | O=C(NC1CCSc2ccccc21)c1ccc(F)c(S(=O)(=O)N2CCOCC2)c1 (stereo not drawn) | 1.62 | 18.4 µM [rising, single point] | 
39 | CCc1nn(C(C)C(=O)Nc2cccc(C)c2C)c(=O)c2cc3occc3n12 (stereo not drawn) | 52.8 | 0.184 µM [rising, partial curve] | 0.00517 µM [rising, full curve, poor fit]
40 | CC(C)c1nnc(NC(=O)c2ccc3c(c2)OCO3)s1 | -8.24 | 2.06 µM [falling, partial curve] | 

Row | SMILES | cell number change [%] | AC50 [1] | AC50 [2]
41 | COCCCNS(=O)(=O)c1ccc2[nH]c(=O)[nH]c2c1 | 10.9 |  | 
42 | COc1cc(NC(=O)c2cc3ccccc3cc2OC)ccc1NC(=O)c1cccs1 | -45.5 | 2.59 µM [falling, full curve] | 8.2 µM [falling, partial curve]
43 | N#CC[C@H](Cc1ccccc1)N1CCN(Cc2ccccc2)CCC1=O | 0.299 |  | 
44 | NC(N)=N/N=C/c1ccc(OCc2ccccc2Cl)cc1 | -78.2 |  | 29.1 µM [falling, single point]
45 | Cc1c(N)c(C(C)(C)C)cc(C(C)(C)C)c1[N+](=O)[O-] | -32.2 | 23.1 µM [falling, single point] | 18.4 µM [falling, single point]
46 | Cc1ccc(SCCNC(=O)CN(c2ccc3c(c2)OCO3)S(C)(=O)=O)cc1 | 62.6 | 29.1 µM [rising, single point] | 20.6 µM [rising, partial curve]
47 | N#C/C(=C\c1ccc(OC(=O)c2ccc(Br)s2)cc1)c1nc2ccccc2[nH]1 | 8.62 |  | 
48 | CCCCOc1ccc(C(=O)NC(=S)Nc2ccc(CN3CCOCC3)cc2)cc1 | 22.5 | 2.31 µM [rising, full curve, poor fit] | 1.64 µM [rising, full curve, poor fit]
49 | Cc1ccc(-c2cc(C(=O)Nc3ccc(S(=O)(=O)Nc4cc(C)on4)cc3)c3ccccc3n2)c(C)c1 | -25.7 | 29.1 µM [falling, single point] | 
50 | CCC(C)NC(=O)/C=C/c1ccc(S(=O)(=O)NCc2ccco2)cc1 (stereo not drawn) | 5.91 |  | 
51 | CN(C1CCS(=O)(=O)C1)S(=O)(=O)c1ccccc1 (stereo not drawn) | -45.7 | 4.11 µM [rising, single point] | 29.1 µM [falling, single point]
52 | CCOCCOc1nc(C)cc(C)c1S(=O)(=O)c1ccccc1C |  | 20.6 µM [rising, single point] | 
53 | Cn1c(N)c(C(=O)COC(=O)COc2ccc(Br)cc2)c(=O)n(C)c1=O | -40.8 | 20.6 µM [rising, partial curve, poor fit] | 32.6 µM [falling, single point]
54 | CCOC(=O)C1CCN(C(=O)c2cc3c(s2)-c2ccccc2OC3)CC1 | -4.9 | 1.3 µM [rising, full curve, poor fit] | 
55 | O=C(CC12CC3CC(CC(C3)C1)C2)N1CCOCC1 | -36.8 | 3.66 µM [falling, full curve] | 1.3 µM [falling, full curve]
56 | CC(C)Oc1ccc(S(=O)(=O)N2CCOCC2)cc1NC(=O)C1=NN(c2ccccc2)C(=O)CC1 |  | 6.51 µM [falling, single point] | 6.51 µM [rising, single point]
57 | Cc1ccccc1C(=O)O/N=C(\N)c1ccc([N+](=O)[O-])cc1 | 5.47 | 32.6 µM [rising, single point] | 
58 | C/C(CCN1CCCCc2nc(C)c(C)cc21)=N\O[C@@H](C)c1cn([C@H](CO)Cc2ccccc2)nn1 |  | 0.058 µM [falling, full curve, poor fit] | 

In the list so far, these have an NH in an aromatic ring:
Row | SMILES | cell number change [%] | AC50 [1] | AC50 [2]
12 | COC(=O)C(Cc1c[nH]c2ccccc12)NC(=O)c1cc(-c2ccc(OC)c(OC)c2)oc1C (stereo not drawn) | -23.2 | 29.1 µM [falling, single point] | 
41 | COCCCNS(=O)(=O)c1ccc2[nH]c(=O)[nH]c2c1 | 10.9 |  | 
47 | N#C/C(=C\c1ccc(OC(=O)c2ccc(Br)s2)cc1)c1nc2ccccc2[nH]1 | 8.62 |  | 
